Measurements reported in PubChem BioAssay AID1259424 (University of Nebraska Medical Center, 2018).
The deposit covers about 14,000 reagents; below is a random part of them. 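Higher correlation or smaller distance means closer resemblance to KSR1 loss; control wells, including KSR1 knockdowns, recur on many plates.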 A reagent listed more than once was tested more than once; the source does not tell the runs apart. Further read-outs or replicates are left out here. The record does not give: the time to read-out.

- Screen: 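Rank knockdowns across the genome by resemblance to the KSR1 depletion profile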 (primary screen)
- Cells: human HCT116 colon cancer cells
- Reagent: siRNA pool against human genes, 50 nM
- Measured: 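Six signature mRNAs by branched-DNA multiplex assay, scaled to two housekeeping genes and non-targeting median, log2; matched to mean KSR1 knockdown profile by Pearson correlation and euclidean distance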
- Scale: mean correlation with KSR1 profile: higher = expression change more like KSR1 knockdown

mean correlation with KSR1 profile	Target gene
-0.0235	IPMK (GeneID 253430)
0.658	MAP4K2 (GeneID 5871)
-0.125	GSDMC (GeneID 56169)
0.773	DRD4 (GeneID 1815)
-0.725	H3C6 (GeneID 8353)
0.865	JRKL (GeneID 8690)
-0.427	MAGEA1 (GeneID 4100)
-0.125	PRPS1 (GeneID 5631)
-0.358	SMAD1 (GeneID 4086)
-0.0087	SMAD1 (GeneID 4086)
0.449	ACVR2A (GeneID 92)
-0.218	FUT4 (GeneID 2526)
0.103	CLP1 (GeneID 10978)
-0.197	THEMIS2 (GeneID 9473)
-0.476	KRT5 (GeneID 3852)
-0.337	PHPT1 (GeneID 29085)
-0.02	TNFRSF17 (GeneID 608)
-0.373	ACP2 (GeneID 53)
-0.518	FAM234B (GeneID 57613)
0.698	S1PR4 (GeneID 8698)

3 of these entries in another layout:
PHPT1 (GeneID 29085)
- mean correlation with KSR1 profile: -0.337

TNFRSF17 (GeneID 608)
- mean correlation with KSR1 profile: -0.02

ACP2 (GeneID 53)
- mean correlation with KSR1 profile: -0.373
